According to patent publication US20180296691A1 (Pfizer, published 2018):
These are yes or no findings as the source states them, for the method shown. A result given as binding can be weak or reduced; the word gives no strength.

Legend:
[1] = target: human EFNA4 antigen (ephrin-A4 ligand) (human); assay: Biacore
[2] = target: human EFNA4 antigen (ephrin-A4 ligand) (human); assay: Biacore; compared with the murine counterpart
[3] = target: recombinant human EFNA4 extracellular domain fused to a histidine tag (human); assay: SPR (BIAcore 2000), recombinant EFNA4 ECD-His

| binding [1] | binding [2] | Binder | binding [3] |
| --- | --- | --- | --- |
| binds | – | humanized anti-EFNA4 antibody huE15 (antibody, human IgG1, V domains shown) VH: EVQLVESGGGLVKPGGSLRLSCAASGFTFSTYGMSWVRQAPGKGLEWVATISSGGTYTYYPDSVKGRFKISRDNAKNSLYLQMNSLRAEDTAVYYCTRHDPNDGYYFLFAYWGQGTLVTVSS VL: EIVLTQSPGTLSLSPGERATLSCKASQSVGNNVAWYQQKPGQAPRLLIYYASNRYTGIPDRFSGSGSGTDFTLTISRLEPEDFAVYYCQQHYSSPLTFGAGTKLEIK | – |
| binds | – | humanized anti-EFNA4 antibody huE47 (antibody, human IgG1, kappa, V domains shown, human IgG1 / kappa) VH: QVQLVQSGAEVKKPGASVKVSCKASGYTFTYFYMNWVRQAPGQGLEWVGQINPNNGGTAYAQKFQGRVTMTRDTSTSTVYMELSSLRSEDTAVYYCARWVGTHYFDYWGQGTTLTVSS VL: EIVLTQSPATLSLSPGERATLSCRASQSVSSSSYTYIHWYQQKPGQAPRLLINFASNLESGIPARFSGSGSGTDFTLTISSLEPEDFAVYYCQHSWEIPPTFGGGTKLEIKR | – |

The next lines start with the binder.

| Binder | binding [1] | binding [2] | binding [3] |
| --- | --- | --- | --- |
| humanized anti-EFNA4 antibody huE5 (antibody, human IgG1, V domains shown) VH: EVQLVESGGGLVQPGGSLRLSCAASGFTVTTYGVDWVRQAPGKGLEWLGVIWGGGSTNYNSALKSRFTISRDNSKNTLYLQMNSLRAEDTAVYYCASDWAYWGQGTLVTVSS VL: DIQMTQSPSSLSASVGDRVTITCRASQNVGTNVAWFQQKPGKAPKSLIHSASYRYSGVPSRFSGSGSGTDFTLTISSLQPEDFATYYCQQYKRYPYTFGGGTKLEIK | – | binds | – |
| humanized anti-EFNA4 antibody huE22 (antibody, human IgG1, kappa, V domains shown, human IgG1 / kappa; also called huE22 mAb; unconjugated huE22) VH: QVQLVQSGAEVKKPGASVKVSCKASGYTFTGYYIHWVRQAPGQGLEWMGWIYPGNFNTKYNERFKGRVTMTTDTSTSTAYMELRSLRSDDTAVYYCAREDGSPYYAMDYWGQGTSVTVSS VL: DIVMTQTPLSLSVTPGQPASISCRSSQSLVHSNGNTFLYWYLQKPGQSPQLLIYRVSNRFSGVPDRFSGSGSGTDFTLKISRVEAEDVGVYYCFQATHVPWTFGGGTKVEIKR | binds | – | binds |
